PubChem BioAssay AID2685 (National Center for Advancing Translational Sciences (NCATS), 2010)
The other results are listed elsewhere or left out. The main result of the screen is listed elsewhere. These columns were measured beside it and carry no call. Compounds called inactive in the main read-out are mostly missing here. The note in brackets gives the kind of curve behind each potency; many fits are weak.

Test: qHTS Assay for Lipid Storage Modulators in Drosophila S3 Cells;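 on cell number change: cells counted by Cell Tracker Red CMTPX staining in the red channel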
Settings: BODIPY lipid droplet fluorescence, 18-24 h; for cell number change: measured here: cell count max response, cells fed with added oleic acid
Method in brief: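 Drosophila S3 cells loaded with oleic acid (400 uM, as added) and compounds at several concentrations; lipid droplets imaged by 488-nm laser-scanning cytometry, 500–530 nm intensity and object ratio to cell channel. Percent activity normalized to 20 uM Triacsin C.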

[1] = measured here: lipid fluorescence (Fed channel) AC50, cells fed with added oleic acid
[2] = measured here: cell number channel AC50, cells fed with added oleic acid

## CCCN1CCN(C(=O)CCCNC(=O)Cn2cnc3sc(C)c(C)c3c2=O)CC1
  cell number change: -23.7%
[1]
  AC50: 13 µM [falling, partial curve]

## CCC(Oc1ccccc1)C(=O)Nc1ccsc1C(=O)OC (centres undefined)
  cell number change: -33.3%
[2]
  AC50: 7.31 µM [falling, partial curve]

## COc1c2ccoc2c(OCC=C(C)C)c2oc(=O)ccc12
  cell number change: 15.5%
[1]
  AC50: 0.291 µM [rising, full curve]

## CCCCc1ccc(N=N/C(C(=O)Nc2cc(OC)c(NC(C)=O)cc2OC)=C(/C)O)cc1
  cell number change: 20.1%
[1]
  AC50: 29.1 µM [falling, single point]

## O=C(CSc1nnc(COc2ccc(Cl)cc2)o1)NC1CCCCC1
  cell number change: 27.4%
[1]
  AC50: 0.651 µM [falling, single point]

## C/C(=N/O)c1cc(C(C)(C)C)c(O)c(C(C)(C)C)c1
  cell number change: 6.72%

## CC(C)OC(=O)c1cccnc1SCc1cc(=O)n2ccccc2n1
  cell number change: 23.5%
[1]
  AC50: 0.411 µM [rising, full curve, poor fit]

## C=CCOc1ccc(C2OC34CCCCC3C(C#N)(C#N)C2(C#N)C(=N)O4)cc1 (centres undefined)
  cell number change: 30.4%
[2]
  AC50: 13 µM [rising, single point]

## CN(C(=O)CSc1ncnc2scc(-c3ccccc3)c12)C1CCS(=O)(=O)C1 (centres undefined)
  cell number change: 35%
[2]
  AC50: 11.6 µM [rising, partial curve]
[1]
  AC50: 11.6 µM [rising, partial curve]

## CC1(C)C=Cc2c(ccc3c2OC[C@H](c2ccc(O)cc2O)C3)O1
  cell number change: -81.6%
[2]
  AC50: 14.6 µM [falling, partial curve]

## O=S(=O)(c1ccc(Cl)c(C(F)(F)F)c1)N1CCN(CC(O)COCC2CCCO2)CC1 (centres undefined)
[2]
  AC50: 0.731 µM [falling, single point]

## O=c1/c(=C/c2ccco2)sc2n1CN(c1cccc(Br)c1)CN=2
  cell number change: 73.3%
[2]
  AC50: 0.731 µM [rising, full curve]
[1]
  AC50: 1.84 µM [rising, full curve]

## O=C(CCSc1ccccc1)N1CCN(C(=O)c2ccco2)CC1
[1]
  AC50: 0.731 µM [falling, full curve]

## O=C1CC(N2CCOCC2)C(=O)N1c1ccccc1Cl (centres undefined)
  cell number change: -19%
[1]
  AC50: 29.1 µM [falling, single point]

## CCOC(=O)C(NC(=O)c1ccccc1Cl)(Nc1sc2c(c1C(N)=O)CCC2)C(F)(F)F (centres undefined)
  cell number change: -47.1%
[2]
  AC50: 20.6 µM [falling, partial curve]
[1]
  AC50: 18.4 µM [falling, partial curve]

## Cc1cc(NC2C3CC4CC(C3)CC2C4)n2ncnc2n1 (centres undefined)
  cell number change: -12.4%
[1]
  AC50: 32.6 µM [falling, single point]

## NS(=O)(=O)c1ccc(CCNC(=O)c2ccc(C(=O)c3ccccc3)cc2)cc1
  cell number change: 28.3%
[1]
  AC50: 29.1 µM [rising, single point]

## O=[N+]([O-])c1cccc(S(=O)(=O)N2CCc3ccccc3C2)c1
  cell number change: 67.1%
[2]
  AC50: 32.6 µM [rising, partial curve]

## CN(c1cccc(NC(=O)CN(c2cccc(F)c2)S(C)(=O)=O)c1)S(C)(=O)=O
  cell number change: 29.4%
[2]
  AC50: 1.64 µM [falling, partial curve]

## Cc1ccc(NC(=O)COC(=O)C2CC(=O)N(Cc3ccccc3)C2)cc1S(=O)(=O)N(C)C (centres undefined)
  cell number change: 2.82%
[2]
  AC50: 0.00461 µM [rising, full curve, poor fit]

## O=C(N=C1N=C2C=CC=CN2Cc2ccccc21)c1ccc(S(=O)(=O)N2CCOCC2)cc1
  cell number change: 42.8%
[2]
  AC50: 5.8 µM [rising, partial curve, poor fit]
[1]
  AC50: 25.9 µM [rising, single point]

## O=C(CN1CCN(S(=O)(=O)c2cc(Cl)ccc2Cl)CC1)Nc1ccc2c(c1)OCCO2
[2]
  AC50: 4.11 µM [rising, single point]

## Cc1cc(NC(=O)COC(=O)COc2ccc(C(=O)c3ccccc3)cc2)no1
  cell number change: -24.2%
[1]
  AC50: 29.1 µM [rising, single point]

## Fc1ccc(-c2cc(C(F)(F)C(F)F)[nH]n2)cc1
  cell number change: -2.81%
[1]
  AC50: 6.51 µM [rising, single point]

## COc1ccccc1OCc1nc(-c2ccc([N+](=O)[O-])cc2)no1
  cell number change: 55.3%
[2]
  AC50: 5.8 µM [rising, partial curve]
[1]
  AC50: 5.8 µM [rising, partial curve]

## COc1cc2c(cc1OC)C(C)N(C(=O)c1cc3c(s1)-c1c(C)cccc1OC3)CC2 (centres undefined)
  cell number change: 17.1%
[1]
  AC50: 4.11 µM [rising, single point]

## CC(Oc1ccc2c3c(c(=O)oc2c1)CCCC3)C(=O)NCC(O)c1ccccc1 (centres undefined)
  cell number change: -6.27%

## CCCCC1(C)NC(=S)N2N1C(=S)NC2(C)CCCC (centres undefined)
  cell number change: -8.3%

## Cc1ncc([N+](=O)[O-])n1CC(=O)NCCc1ccccc1
  cell number change: -28.8%
[1]
  AC50: 20.6 µM [falling, single point]

## Cc1ccc(-n2ccnc(SCC(=O)NC3CCCC3)c2=O)cc1Cl
  cell number change: -11.3%

## COC(=O)c1ccc2c(=O)n(CCN3CCOCC3)c(=S)[nH]c2c1
  cell number change: 56.9%
[2]
  AC50: 11.6 µM [rising, partial curve]
[1]
  AC50: 11.6 µM [rising, partial curve]

## CCOc1ccc(/C=N/NC(=O)C(=O)N2CCCCCC2)c2ccccc12
  cell number change: -55.8%
[2]
  AC50: 29.1 µM [falling, partial curve, poor fit]
[1]
  AC50: 29.1 µM [falling, single point]

## CCOC(=O)c1cc(-c2ccccc2)nn1CCC#N
[2]
  AC50: 0.0731 µM [rising, full curve, poor fit]

## O=C(NCc1cccnc1)Nc1ccc2c(c1)OCO2
  cell number change: 16.6%
[1]
  AC50: 29.1 µM [rising, single point]

## CC(C)CN1C(=O)c2ccccc2C1(O)Cc1ccccc1 (centres undefined)
  cell number change: -16.6%
[1]
  AC50: 32.6 µM [falling, partial curve, poor fit]

## O=C(N/N=C/c1sc2ccccc2c1O)c1ccccc1
  cell number change: -24%
[1]
  AC50: 13 µM [falling, partial curve]

## CC(C)(C)NC(=O)COC(=O)c1cc(F)c(F)cc1Cl
[1]
  AC50: 0.82 µM [falling, single point]

## CCOC(=O)c1c(C)[nH]c(C)c1C(=O)COC(=O)c1ccc(S(=O)(=O)N(CC)CC)cc1
  cell number change: -5.13%
[1]
  AC50: 0.0058 µM [falling, full curve, poor fit]
